Reference: PubChem BioAssay AID624101 (Broad Institute, 2012)
About 120 (0.17%) of roughly 70,000 compounds were called active. Inconclusive results, whose numbers are uncertain, are shown with a selection of clear calls. No stated cut-off is given here; in the data, active means inhibition above about 34%; inconclusive means no clear call, values can overlap the other calls; inactive means below about 11%.

Sequences of proteins named here, by UniProt entry; tags and fusion partners are left off.
UniProt O75874, whole entry, looked up: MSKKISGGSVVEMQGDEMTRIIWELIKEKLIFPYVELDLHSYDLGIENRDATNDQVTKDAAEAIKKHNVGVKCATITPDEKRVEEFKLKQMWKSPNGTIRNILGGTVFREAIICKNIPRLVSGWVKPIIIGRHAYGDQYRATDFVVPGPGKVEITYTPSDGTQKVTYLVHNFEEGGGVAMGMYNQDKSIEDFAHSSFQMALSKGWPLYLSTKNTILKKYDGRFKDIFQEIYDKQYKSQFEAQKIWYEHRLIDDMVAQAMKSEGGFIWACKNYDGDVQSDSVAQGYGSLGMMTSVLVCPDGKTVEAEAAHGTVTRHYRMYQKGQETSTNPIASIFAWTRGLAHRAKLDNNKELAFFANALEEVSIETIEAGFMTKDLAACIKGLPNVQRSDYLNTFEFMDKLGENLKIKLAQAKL
UniProt O75874, whole entry R132H: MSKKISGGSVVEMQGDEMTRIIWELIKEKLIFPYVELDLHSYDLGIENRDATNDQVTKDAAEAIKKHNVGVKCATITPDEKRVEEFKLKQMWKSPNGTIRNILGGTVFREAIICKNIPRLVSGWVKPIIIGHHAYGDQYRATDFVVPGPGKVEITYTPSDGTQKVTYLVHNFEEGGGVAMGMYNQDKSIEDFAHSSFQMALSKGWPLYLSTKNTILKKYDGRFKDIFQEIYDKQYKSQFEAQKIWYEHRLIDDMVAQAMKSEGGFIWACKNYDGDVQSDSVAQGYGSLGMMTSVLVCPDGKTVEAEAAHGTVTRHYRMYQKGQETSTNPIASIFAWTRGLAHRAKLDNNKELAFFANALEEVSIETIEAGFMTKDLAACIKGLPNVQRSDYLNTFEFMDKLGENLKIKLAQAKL

Target: Isocitrate dehydrogenase [NADP] cytoplasmic (Homo sapiens) (UniProt O75874)
Experiment: PubChem AID 624101;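 further: 0% = DMSO and 100% = no enzyme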
Conditions: IDH1 R132H reductase, diaphorase/resazurin fluorescence, 60 min; at 10 µM; stronger effect = higher value

| Structure (SMILES) | inhibition |
| --- | --- |
| CC(C)NC(=O)N(C)C[C@@H]1Oc2cc(C#Cc3ccc(F)cc3)ccc2S(=O)(=O)N([C@@H](C)CO)C[C@H]1C | inconclusive: 37% |
| C/C=C/c1ccc2c(c1)O[C@@H](CN(C)Cc1ccncc1)[C@H](C)CN([C@H](C)CO)S2(=O)=O | active: 43.1% |
| C[C@@H]1CN([C@@H](C)CO)C(=O)Cc2cc(NC(=O)Nc3ccc4c(c3)OCO4)ccc2O[C@H]1CN(C)Cc1ccncc1 | inconclusive: 35.8% |
| COCC(=O)N(C)C[C@@H]1Oc2ncc(-c3cccc(OC)c3)cc2C(=O)N([C@H](C)CO)C[C@@H]1C | inactive: -0.607% |
| C[C@@H]1CCCCO[C@H](CN(C)C)[C@H](C)CN([C@H](C)CO)C(=O)c2cc(NS(=O)(=O)c3ccc(Cl)cc3)ccc2O1 | inactive: 1.91% |
| C[C@@H]1CN([C@@H](C)CO)C(=O)c2cc(NS(=O)(=O)c3ccc(F)cc3)ccc2O[C@@H](C)CCCCO[C@@H]1CN(C)Cc1ccccc1 | inactive: -1.14% |
| CCNC(=O)C[C@H]1CC[C@@H](NC(=O)C2CC2)[C@@H](CO)O1 | inactive: 0.419% |
| CC(C)NC(=O)N(C)C[C@@H]1Oc2ncc(Br)cc2C(=O)N([C@H](C)CO)C[C@@H]1C | inconclusive: 32.7% |
| COc1cccc(C#Cc2cnc3c(c2)C(=O)N([C@H](C)CO)C[C@@H](C)[C@@H](CN(C)C(C)=O)O3)c1 | inactive: -8.56% |
| C[C@@H]1CN([C@@H](C)CO)S(=O)(=O)c2ccc(Br)cc2O[C@H]1CN(C)Cc1cccnc1 | inconclusive: 45.4% |
| Cc1ccc(S(=O)(=O)N(CC(=O)O)c2ccc(C)c(C)c2)cc1 | inactive: 0.627% |
| C[C@@H]1CCCCO[C@H](CN(C)C)[C@H](C)CN([C@H](C)CO)C(=O)c2cc(NC(=O)CCCN(C)C)ccc2O1 | inactive: 7.61% |
| Cc1ccc(S(=O)(=O)N(C)C[C@@H]2OCCCC[C@@H](C)Oc3ccc(NS(=O)(=O)c4cccs4)cc3C(=O)N([C@@H](C)CO)C[C@H]2C)cc1 | inconclusive: 30.3% |
| C[C@@H]1CCCCO[C@H](CN(C)Cc2ccc(C(F)(F)F)cc2)[C@@H](C)CN([C@@H](C)CO)C(=O)c2cc(NC(=O)Nc3ccc(F)cc3)ccc2O1 | inactive: -4.24% |
| CCOC(=O)c1c(-c2ccc(C)o2)csc1NC(=S)NC(=O)N(C)C | inconclusive: 32.4% |
| COC(CCc1ccc(O)c(O)c1)CC(=O)CCc1ccc(O)c(O)c1 (configuration not stated) | active: 51.9% |
| O=C(OCC1OC(Oc2ccc(O)cc2COC(=O)C2(O)C(O)CCC(=O)C2O)C(O)C(O)C1O)c1ccccc1 (configuration not stated) | active: 36.1% |

Retrieved by compound from above, two records:

| Structure (SMILES) | inhibition |
| --- | --- |
| Cc1ccc(S(=O)(=O)N(CC(=O)O)c2ccc(C)c(C)c2)cc1 | inactive: 0.627% |
| C[C@@H]1CCCCO[C@H](CN(C)C)[C@H](C)CN([C@H](C)CO)C(=O)c2cc(NC(=O)CCCN(C)C)ccc2O1 | inactive: 7.61% |
